Measurements: patent US12295967B2, “Pharmaceutical composition for prevention or treatment of flavivirus infection” (priority 2018, dated 2025)
For at least one compound, name, drawing or mass did not settle the structure.

System: DENV2 (dengue virus serotype 2)
Assay: Body weight, survival rate and plasma viremia in DENV2 infected AG129 mice
Assay type: in vivo
Conditions: 10 mg/kg once daily, FIG. 7

In the case of `CC(C)(O)c1ccccc1CC[C@@H](SCC1(CC(=O)O)CC1)c1cccc(/C=C/c2ccc3ccc(Cl)cc3n2)c1` [Montelukast], the survival rate is reported as “high survival rate”, the weight loss is reported as “low degree of weight loss” and the hyperemia in plasma (day three after infection) is reported as “low hyperemia”.
